16 substances from patent EP0624163B1 (Smithkline Beecham Farmaceutici S.p.A., priority 1992, dated 1998) can be followed below.

Non-standard residues stand in square brackets, D forms with d. *: point of attachment. His(Trt) = N[C@@H](Cc1cn(C(c2ccccc2)(c2ccccc2)c2ccccc2)cn1)C(=O)O; Fmoc = O=C(OCC1c2ccccc2-c2ccccc21)*; Mtr = COc1cc(C)c(S(=O)(=O)*)c(C)c1C; Cbz = O=C(OCc1ccccc1)*; Boc = CC(C)(C)OC(=O)*; OBn = c1ccc(CO*)cc1; OtBu = CC(C)(C)O*; tBu = CC(C)(C)*

A short description of the data set: general procedure: solution-phase peptide synthesis; DCC/HOBt/DMAP; pentafluorophenyl and N-hydroxysuccinimide esters; BOP for cyclis.

With Fmoc-NLS(tBu)T(tBu)-OBn, the step yield (coupling step) was found to be 80%. As for Fmoc-S(tBu)NLS(tBu)T(tBu)-OBn, the step yield (coupling step) was 99%.

H-VGAG-OtBu showed a step yield (late stage modification step) of 86%. Where the note is “coupling step”, “Fmoc-Lys(Boc)-Leu-Ser(t-Bu)-Gln-Glu(O-t-Bu)-Leu-His(Trt)-Lys(Boc)-Leu-Gln-Thr(t-Bu)-Tyr(t-Bu)-Pro-A rg(Mtr)-Thr(t-Bu)-Ala-Val-Gly-Ala-Gly-Thr(t-Bu)-Pro-NH2” yielded a step yield of 98%. Under “coupling step”, Cbz-AVGAGT(tBu)P-NH2 registered a step yield of 30%. “Fmoc-Lys(Boc)-Leu-Ser(t-Bu)-Gln-Glu(O-t-Bu)-Leu-His(Trt)--Lys(Boc)-Leu-Gln-Thr(t-Bu)-Tyr(t-Bu)-Pro-Arg(Mtr)-Thr(t --Bu)-Asp(O-t-Bu)-Val-Gly-Ala-Gly-Thr(t-Bu)-Pro-NH2”: the step yield (coupling step) is given as 94%. On the same count and under the same terms, the result for Cbz-AVGAG-OtBu reads 57.9%. In turn, H-R(Mtr)T(tBu)D(OtBu)VGAGT(tBu)P-NH2 yielded a step yield (late stage modification step) of 99%. With “Fmoc-Arg(Mtr)-Thr(t-Bu)-Ala-Val-Gly-Ala-Giy-Thr(t-Bu)-Pro-NH2”, the step yield (coupling step) worked out at 68.8%.

Consider H-AVGAGT(tBu)P-NH2, for which the step yield (late stage modification step) is listed as 94%. With Fmoc-S(tBu)NLS(tBu)T(tBu)-OH, under “late stage modification step”, the step yield is 53.3%. Cbz-VGAG-OtBu came in with a step yield (coupling step) of 65.3%. The substance Cbz-AVGAG-OH gave a step yield (late stage modification step) of 100%. Same read-out and setting: the result for H-NLS(tBu)T(tBu)-OBn reads 97%; that for “H-K(Boc)LS(tBu)QE(OtBu)L[His(Trt)]K(Boc)LQT(tBu)Y(tBu)PR(Mtr)T(tBu)AVGAGT(tBu)P-NH2”, 100%; that for “H-Arg-(Mtr)-Thr(t-Bu)-Ala-Val-Gly-Ala-Gly-Th r(t-Bu)-Pro-NH2”, 100%.
